The list shows a part of the results. The main result of the screen is listed elsewhere. These columns were measured beside it and carry no call. Most of these compounds were active or inconclusive in the main read-out, so they are no random draw. Potencies come from curve fits of mixed quality, noted in brackets.
Test: qHTS Assay for Modulators of Lamin A Splicing
Conditions: HeLa LMNA splicing GFP/RFP minigene ratio, 48 h
Outline: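 S3 HeLa stable clones carrying a lamin A-EGFP splicing minigene plus DsRed2 were seeded at 600 cells/well in Opti-MEM with 2% FBS, pin-dosed and incubated 48 h at 37°C. Acumen cytometry (488 nm) gave the GFP/RFP total-intensity ratio.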

[1] = measured here: RFP viability control channel
[2] = measured here: GFP splicing reporter channel

SMILES | AC50 [1] | AC50 [2]
COC(=O)C1=NN(C(C)=O)C2(CC(=O)N(c3cccc(C)c3)C2=O)C1 (stereo unspecified) | 0.0631 µM [rising, full curve] | 
Cc1ccc(OCCn2cc(C(=S)N3CCCC3)c3ccccc32)cc1C | 5.62 µM [rising, full curve] | 
O=C(Nc1cccc(-c2cc3ccccc3oc2=O)c1)c1ccc(Br)o1 | 35.5 µM [rising, single point] | 
O=C(CCl)Nc1nc(-c2ccco2)c(-c2ccco2)s1 | 10 µM [rising, partial curve] | 
C=CCn1c(SCC(=O)Nc2ccc3c(c2)OCO3)nnc1-c1cc(Br)ccc1O |  | 22.4 µM [rising, single point]
CSCCC(NS(=O)(=O)c1cccs1)C(=O)NCc1ccc(C)cc1 (stereo unspecified) | 10 µM [rising, single point] | 
S=c1[nH]nc(CSCc2ccccc2Cl)n1C1CCCCC1 | 0.1 µM [falling, full curve, poor fit] | 0.282 µM [falling, partial curve, poor fit]
COc1ccc(CNC(=O)c2cccc(C)c2[N+](=O)[O-])cc1 |  | 35.5 µM [rising, single point]
N=c1c2c(ncn1CCN1CCOCC1)Oc1ccc3ccccc3c1C2c1ccccc1 (stereo unspecified) | 2.24 µM [rising, partial curve, poor fit] | 
CC(C)c1ccc(/C=C/C(=O)NC2=NCCS2)cc1 | 14.1 µM [rising, single point] | 7.08 µM [rising, partial curve, poor fit]
c1ccc(CNc2nc(-c3cccs3)nc3ccccc23)nc1 |  | 35.5 µM [falling, partial curve, poor fit]
Cc1ccc(COc2ccc(Br)cc2/C=N/O)cc1 | 22.4 µM [falling, partial curve] | 15.8 µM [falling, single point]
Cc1ccc(NC(=O)c2c(C)nc3ccccn23)cc1C | 39.8 µM [falling, partial curve, poor fit] | 
COc1ccccc1/C=C1\SC(=S)N(N2C(=O)CCCC2=O)C1=O | 7.94 µM [rising, partial curve, poor fit] | 
N#CCCN1CCN(C(=S)c2ccc(-c3cc(Cl)ccc3Cl)o2)CC1 |  | 35.5 µM [rising, single point]
N#CCCN1CCN(C2=NC(=O)C(=C3CCCCC3)S2)CC1 |  | 12.6 µM [rising, partial curve]
Cc1ccc(CN(C(=O)COc2cccc([N+](=O)[O-])c2)c2ccccn2)o1 | 17.8 µM [rising, partial curve, poor fit] | 
CCOC(=O)c1cccc(NC(=O)C(CC(C)C)N2Cc3ccccc3C2=O)c1 (stereo unspecified) | 31.6 µM [rising, single point] | 

As a working copy, 2 of the compounds above:
SMILES | AC50 [1] | AC50 [2]
COc1ccccc1/C=C1\SC(=S)N(N2C(=O)CCCC2=O)C1=O | 7.94 µM [rising, partial curve, poor fit] | 
N#CCCN1CCN(C(=S)c2ccc(-c3cc(Cl)ccc3Cl)o2)CC1 |  | 35.5 µM [rising, single point]

More entries.

SMILES | AC50 [1] | AC50 [2]
COc1cccc(NC(=O)c2ccc(NC(=O)C(C)(C)C)cc2)c1 | 31.6 µM [rising, single point] | 14.1 µM [rising, single point]
Cn1nnnc1SCCNCc1ccc(F)cc1 |  | 2.24 µM [rising, partial curve]
CO[C@H]1[C@@H](OC(N)=O)[C@H](O)[C@@H](Oc2ccc3c(O)c(NC(=O)c4ccc(O)c(CC=C(C)C)c4)c(=O)oc3c2C)OC1(C)C | 12.6 µM [falling, partial curve, poor fit] | 1.41 µM [falling, single point]
COC(=O)[C@@]1(Cc2ccc(OC)cc2)[C@H]2c3cc(C(=O)N(C)C)n(Cc4ccc(OC(F)(F)F)cc4)c3C[C@H]2CN1C(=O)c1ccccc1 | 15.8 µM [rising, partial curve] | 10 µM [rising, partial curve]
Cc1cc(OCC(=O)C(C)(C)C)c2c(C)c(C)c(=O)oc2c1 | 10 µM [rising, single point] | 11.2 µM [rising, partial curve]
CCCNC(=O)c1ccc(-n2c(-c3ccccc3)cc3c2CCC(C)C3)cc1 (stereo unspecified) |  | 3.16 µM [falling, partial curve, poor fit]
COC(=O)C1=C(C(=O)OC)[C@@H]2N(C)c3ccccc3[C@@]23C[C@@H](CO)N=C3N1 |  | 1.41 µM [rising, single point]
Cc1cccc(N2CCN(C(=O)CS(=O)(=O)c3cccc4nsnc34)CC2C)c1 (stereo unspecified) | 6.31 µM [rising, single point] | 
CN(C)S(=O)(=O)c1cccc(-c2nnc(SCc3ccc4c(c3)OCCO4)o2)c1 | 22.4 µM [rising, partial curve, poor fit] | 
O=C(c1ccc(Cl)c(S(=O)(=O)NCc2ccco2)c1)N1CCN(c2ccc(F)cc2)CC1 | 15.8 µM [rising, single point] | 
CC(=O)Oc1ccc2c(=O)c(Oc3ccccc3)c(C)oc2c1OC(C)=O | 35.5 µM [rising, single point] | 35.5 µM [rising, single point]
Cc1ccc(N(C(=O)CNC(=O)c2ccco2)C(C(=O)NC2CCCC2)c2cccnc2)cc1C (stereo unspecified) |  | 35.5 µM [rising, single point]
Cc1ccc(-c2nc(CS(=O)CC(=O)N3CCN(c4ccc(Cl)cc4)CC3)c(C)o2)cc1 (stereo unspecified) | 31.6 µM [rising, single point] | 6.31 µM [falling, single point]
CCC(=O)NC(Nc1sc2c(c1C(=O)OC)CCC2)C(Cl)(Cl)Cl (stereo unspecified) | 35.5 µM [rising, single point] | 
O=C(Nc1ccnc(-c2cccnc2)n1)c1ccc(F)cc1 | 3.55 µM [falling, single point] | 3.55 µM [falling, partial curve]
O=C(Nc1ccccc1Cl)N1CCN(c2ccc3nnc(-c4ccc(F)cc4)n3n2)CC1 | 11.2 µM [rising, partial curve] | 15.8 µM [rising, partial curve, poor fit]
Cc1noc(C)c1S(=O)(=O)N1CCC(C(=O)Nc2ccc(OC(F)(F)F)cc2)CC1 |  | 17.8 µM [rising, single point]

— PubChem BioAssay AID1487 (National Center for Advancing Translational Sciences (NCATS), 2009)
